Reference: PubChem BioAssay AID651599 (National Center for Advancing Translational Sciences (NCATS), 2012)
Inconclusive means that the source gave no clear call. Such entries were picked first, then a sample of the others. Where the call is inconclusive, the potency comes from a doubtful curve fit. Calls of active or inactive are those of the source. Calls follow the shape of the dose curve; as a rule, active = well fitted inhibition curve with a large enough effect; inconclusive = small, poorly fitted or top-dose-only effect; inactive = no such curve, though single readings can be large or run the other way.

Protein sequences, listed by entry. Tags and fused reporters are not part of them. Lines headed by an entry give the natural chain unless they say otherwise; changes in a name come on top.
UniProt Q99816: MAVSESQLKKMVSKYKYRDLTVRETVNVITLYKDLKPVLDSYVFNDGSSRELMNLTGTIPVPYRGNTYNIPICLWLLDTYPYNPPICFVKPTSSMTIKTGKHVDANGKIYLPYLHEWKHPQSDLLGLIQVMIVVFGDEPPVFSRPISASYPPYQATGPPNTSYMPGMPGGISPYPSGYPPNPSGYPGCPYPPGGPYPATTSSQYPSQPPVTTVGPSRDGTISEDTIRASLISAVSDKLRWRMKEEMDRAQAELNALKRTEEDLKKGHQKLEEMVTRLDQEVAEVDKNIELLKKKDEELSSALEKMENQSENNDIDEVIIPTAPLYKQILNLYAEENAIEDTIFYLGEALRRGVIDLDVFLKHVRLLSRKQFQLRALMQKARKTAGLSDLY

target: Tumor susceptibility gene 101 protein (Homo sapiens) (UniProt Q99816); experiment: qHTS Assay for Iinhibitors of HIV-1 Budding by Blocking the Interaction of PTAP/TSG101: Hit Validation in TR assay; conditions: Tsg101 binding domain + Texas Red-labeled PTAP peptide, fluorescence polarization, 20 min; series mostly up to 57.5 µM; activity change, negative = inhibition: at the top concentration
Excerpt: Stages of the HIV-1 replication cycle, specifically virus assembly and release, provide underexploited targets for the development of novel antiviral inhibitors. The late stages of HIV-1 replication are mediated by the Gag precursor protein, Pr55Gag. Expression of Pr55Gag is both necessary and sufficient for the production of virus-like particles from Gag-expressing cells. The Gag protein hijacks key host proteins involved in endocytic machinery of the host cell to promote endosomal processing and viral budding. The budding process requires a direct interaction between a […] (PTAP) motif in the p6 domain of Gag and the cellular endosomal sorting protein known as Tsg101. In this way, the Gag PTAP motif promotes the host cells to recruit viral particles to the plasma membrane where the new viral particles are released, effectively turning the host cells into viral factories. A fluorescence anisotropy assay has been developed to quantitatively measure the PTAP-Tsg101 interaction which can be used to screen for inhibitors of this interaction.
This hit validation assay is similar to the primary assay but uses the Texas Red label instead of FITC.
NIH Molecular Libraries Probe Production Network [MLPCN]
NIH Chemical Genomics Center [NCGC]
PI Name: Dr. Eric Freed, NCI
Two uL of the Tsg101 binding domain in buffer (10 mM HEPES pH 7.5; 0.15 M NaCl, 0.01% Tween 20; 3 mM EDTA;0.1 mM TCEP) was dispensed into Greiner black MB 1536-well plates (final concentration 10 uM). Then, 23 nL of compounds or DMSO were delivered to each well using a pin tool. Finally, 2 uL of a TR-labeled peptide containing the PTAP motif (1) in the same buffer was dispensed (50 nM final concentration) and the binding was allowed to proceed for 20 min. at r.t. Fluorescent polarization was determined using TR excitation and polarized emission filters on a Perkin Elmer Viewlux.
Keywords: Tsg101, PTAP, Gag, HIV, fluorescent polarization, MLSMR, MLPCN, NIH Roadmap, qHTS, NCGC
% is scaled to controls: 0 for no effect and ±100 for the full control effect; potency is read from the fitted curve at half-maximal effect.

Row | Compound | Potency | activity change, negative = inhibition
1 | O=[N+]([O-])c1cc(Br)cc(/C=N/n2cnnc2)c1O | inconclusive: 23.1 µM [inhibitor, partial curve] | 
2 | O=C(C1=NN(c2ccccc2)C2C(=O)N(c3cccc(Cl)c3)C(=O)C12)c1ccccc1 (stereo not given) | active: 29.1 µM | 
3 | COc1ccc(-c2onc3ccc(Br)cc23)cc1 |  | inactive: 179%
4 | Nc1ccc2cc3[nH]c4cc(N)ccc4c3nc2c1 | inconclusive: 46.1 µM [inhibitor, single point] | 
5 | COc1ccc(CNS(=O)(=O)c2cc3c(cc2Cl)N(C(C)=O)CCO3)cc1 |  | inactive: -7.94%
6 | NC(=O)c1cc2ccc(O)cc2oc1=NCc1ccccc1 | inconclusive: 46.1 µM [inhibitor, single point] | 
7 | COc1ccc(Cn2c3ccc(OC)cc3c3nc4ccccc4nc32)cc1 | inconclusive: 16.3 µM [inhibitor, full curve, poor fit] | 
8 | O=[N+]([O-])c1cc(Cl)cc(/C=N/NC(=S)Nc2ccc(S(=O)(=O)N3CCOCC3)cc2)c1O |  | inactive: -12.7%
9 | CN1C(=O)NC(c2ccccc2[N+](=O)[O-])C2=C1CCCC2=O (stereo not given) |  | inactive: 3.67%
10 | CCN(CC)c1ccc(/C=C(/C#N)c2nc3ccc(C)cc3[nH]2)c(OC(C)C)c1 |  | inactive: 14.1%
11 | CCN(CC)c1ccc(/C=C/C(=O)c2ccc(Br)cc2)cc1 | active: 16.3 µM | 
12 | COc1ccc(-n2nc(C(=O)Nc3ccc(OC)c(OC)c3)c3c4ccccc4n(C)c3c2=O)cc1 |  | inactive: -9.28%
13 | COc1ccc(OC)c(S(=O)(=O)Nc2cc3c(cc2C)n(C)c(=O)c(=O)n3C)c1 | inconclusive: 0.013 µM [inhibitor, full curve, poor fit] | 
14 | O=C1/C(=C\c2ccc(-c3ccccc3Cl)o2)SC(=S)N1CC1CCCO1 (stereo not given) |  | inactive: -7.11%
15 | CCN(CC)c1ccc2cc(C(=O)NNC(=O)c3ccc(S(=O)(=O)N4CCCCC4)cc3)c(=O)oc2c1 |  | inactive: 9.6%
16 | CCOc1ccc(Cn2c3ccc(OC)cc3c3nc4ccccc4nc32)cc1 |  | inactive: 22.9%
17 | CCN(c1ccc(N=Cc2c(O)n(Cc3ccc(OC)cc3)c(=O)c3ccccc23)cc1)C(C)C |  | inactive: -9.69%
18 | Brc1ccc(-c2nc3ccccn3c2Nc2ccc3c(c2)OCCO3)o1 | inconclusive: 11.6 µM [inhibitor, single point] | 
19 | COc1ccc(C(=O)Nc2nc(-c3ccc([N+](=O)[O-])cc3)c(-c3ccc(OC)cc3)s2)cc1 | inconclusive: 29.1 µM [inhibitor, single point] | 
20 | Cc1ccccc1N1C(=O)c2cccc3c(N(C)CCO)ccc(c23)C1=O | active: 32.6 µM | 

From no. 15 as far as 16, copied from above:
Row | Compound | Potency | activity change, negative = inhibition
15 | CCN(CC)c1ccc2cc(C(=O)NNC(=O)c3ccc(S(=O)(=O)N4CCCCC4)cc3)c(=O)oc2c1 |  | inactive: 9.6%
16 | CCOc1ccc(Cn2c3ccc(OC)cc3c3nc4ccccc4nc32)cc1 |  | inactive: 22.9%

Following part.

Row | Compound | Potency | activity change, negative = inhibition
21 | Nc1ccc2nc(-c3ccccc3)cnc2c1 | inconclusive: 9.19 µM [inhibitor, full curve, poor fit] | 
22 | CCOC(=O)C1Nc2ccccc2C2C(O)C(O)CC12 (stereo not given) | inconclusive: 8.19 µM [inhibitor, full curve, poor fit] | 
23 | COc1cc(/C=c2\sc3nc(=O)c(-c4ccccc4)nn3c2=O)ccc1OCCC(C)C | inconclusive: 32.6 µM [inhibitor, partial curve, poor fit] | 
24 | N#CC1(C#N)C(c2ccccc2)OC23CCCCC2C1(C#N)C(=N)O3 (stereo not given) | inconclusive: 14.6 µM [inhibitor, single point] | 
25 | Cc1ccc(N=Cc2c(O)ccc3ccccc23)cc1F |  | inactive: 18.9%
26 | C=CS(=O)(=O)c1c2cc(OC)ccc2nc2ccc(OC)cc12 | inconclusive: 1.46 µM [inhibitor, full curve] | 
27 | O=C(Oc1ccc[nH]c1=O)c1cc([N+](=O)[O-])cc([N+](=O)[O-])c1 | inconclusive: 46.1 µM [inhibitor, single point] | 
28 | O=C(O)c1ccccc1-c1ccc(/C=C/c2cc(C(F)(F)F)[nH]c(=O)n2)o1 |  | inactive: 14.9%
29 | CCCCn1c(=O)[nH]c2nc3cc(N)ccc3nc2c1=O | active: 11.6 µM | 
30 | COC(=O)CNc1c(-c2ccccc2)nc2ccc(Br)cn12 | inconclusive: 36.6 µM [inhibitor, single point] | 
31 | Nc1ccc(-c2c3ccc(=O)cc-3oc3cc(O)ccc23)cc1C(=O)O | active: 36.6 µM | 
32 | N#Cc1c(SCC(=O)Nc2nc3ccc(Br)cc3s2)sc2c(O)cc(=O)[nH]c12 | inconclusive: 23.1 µM [inhibitor, partial curve] | 
33 | O=C(c1cnn(C(=O)c2ccco2)c1)c1cc(Cl)cc(Cl)c1O | inconclusive: 36.6 µM [inhibitor, partial curve] | 
34 | N=c1c(C(=O)NCC2CCCO2)cc2c(=O)n3ccccc3nc2n1Cc1cccnc1 (stereo not given) | inconclusive: 20.6 µM [inhibitor, single point] | 
35 | COc1ccc(OC)c(-c2c3cc(O)c(=O)cc-3oc3cc(O)c(O)cc23)c1 | active: 32.6 µM | 
36 | Cc1cc(Br)ccc1NC(=O)c1sc2nc3n(c(=O)c2c1C)CCCC3 |  | inactive: 0.794%
37 | CC[C@@]1(O)C(=O)OCc2c1cc1n(c2=O)Cc2cc3c(CN(C)C)c(O)ccc3nc2-1 | inconclusive: 11.6 µM [inhibitor, single point] | 
38 | Cc1c(N=C2N=C(NC(=O)c3ccc(F)cc3)c3ccccc32)c(=O)n(-c2ccccc2)n1C | inconclusive: 25.9 µM [inhibitor, partial curve, poor fit] | 
39 | CSC1=NSC2=NC(=O)/C(=C/c3coc4ccccc4c3=O)C(=N)N12 |  | inactive: -61.3%
40 | CN1CCCC1CCOC(C)(c1ccccc1)c1ccc(Cl)cc1 (stereo not given) | inconclusive: 29.1 µM [inhibitor, single point] | 
